Experimental data published in the supplement of paper PMC3334620.
Over roughly 33,000 sequences, “E-score (-0.5 to 0.5)” has its median near -0.015; the highest 2% begin near 0.3. The list shows a part of the results.

biological target: T1, Abf1 (UniProt P14164); assay: PBM E-score (8-mer binding enrichment) (E-score (-0.5 to 0.5)); higher = stronger / more preferred TF binding; conditions: protein concentration: 200 nM; construct: GST-full length
T1 sequence: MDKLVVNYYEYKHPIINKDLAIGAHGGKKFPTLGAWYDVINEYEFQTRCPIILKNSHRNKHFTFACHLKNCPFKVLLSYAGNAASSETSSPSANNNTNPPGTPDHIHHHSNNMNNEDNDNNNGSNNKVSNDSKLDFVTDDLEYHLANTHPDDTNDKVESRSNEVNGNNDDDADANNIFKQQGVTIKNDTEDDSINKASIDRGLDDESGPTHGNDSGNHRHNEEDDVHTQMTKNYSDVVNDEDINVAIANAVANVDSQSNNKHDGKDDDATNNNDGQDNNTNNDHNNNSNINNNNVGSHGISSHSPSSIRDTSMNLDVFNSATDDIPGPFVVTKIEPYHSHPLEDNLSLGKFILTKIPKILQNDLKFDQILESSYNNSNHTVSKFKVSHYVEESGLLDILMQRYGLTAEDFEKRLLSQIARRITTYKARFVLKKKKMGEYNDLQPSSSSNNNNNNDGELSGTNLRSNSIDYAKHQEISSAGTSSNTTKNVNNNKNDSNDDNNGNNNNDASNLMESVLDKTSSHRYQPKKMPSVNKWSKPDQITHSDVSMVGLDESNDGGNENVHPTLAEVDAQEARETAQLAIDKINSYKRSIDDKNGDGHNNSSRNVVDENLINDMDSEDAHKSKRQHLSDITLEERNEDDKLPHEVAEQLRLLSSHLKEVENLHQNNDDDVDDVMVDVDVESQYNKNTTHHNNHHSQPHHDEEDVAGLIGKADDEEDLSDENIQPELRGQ
Protocol: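 Universal 'all 10-mer' protein binding microarrays (Agilent AMADID 015681) probed with GST-tagged S. cerevisiae TFs (full-length or DBD) made by in vitro transcription/translation (PURExpress), about 100-200 nM. Bound TF was detected with fluorescent anti-GST. Each ungapped 8-mer (which stands for itself and its reverse complement) is scored by the PBM enrichment score (E-score), a modified Wilcoxon-Mann-Whitney statistic from -0.5 to +0.5, computed with the Universal PBM Analysis Suite. Scale: above 0.35 generally sequence-specific binding.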

Row | Sequence | PBM E-score
1 | ACGCCCAT | 0.0437
2 | CGTTAGGA | 0.152
3 | CGGTTTAA | -0.067
4 | AGCTCCCA | -0.296
5 | GTAGAGAA | 0.073
6 | ATTACTGC | 0.173
7 | CACGGTCC | 0.0625
8 | CCACTTCA | -0.0253
9 | AACATCTA | -0.122
10 | CCAGAATA | 0.0527
11 | AAAAACTC | 0.00953
12 | CCAACTAA | -0.171
13 | ACCGTGCA | 0.315
14 | GATTCTGC | 0.11
15 | GTGGTAAA | 0.0486
16 | CAGATTCA | -0.198
17 | ACCCTTCC | -0.279
18 | ATCCCGAT | -0.0964
19 | GCTAATTA | 0.0883
20 | ATTGAAAA | 0.226
21 | ACTTCGGC | -0.107
22 | GCGATCGA | 0.184
23 | ATCAAACG | 0.145
24 | CACTATGA | -0.138
25 | ACTATAAT | 0.139

Row | Sequence | PBM E-score
26 | CCCAACAC | -0.136
27 | CCACAAAA | -0.0076
28 | ACGTTGCG | -0.0312
29 | AGGAAATC | 0.083
30 | AAATCATC | 0.278
31 | GCCATAGC | -0.055
32 | CCTGTAAC | -0.0278
33 | AAAAATGT | 0.184
34 | AGACTCTG | -0.0615
35 | CCAAGCAA | -0.178
36 | CACGTGCC | 0.0511
37 | CTGTTTCC | -0.0696
38 | AGTTAGAG | -0.111
39 | AAGTAGCT | -0.179
40 | GTTGTATA | 0.0125
41 | AAGAGGCA | -0.126
42 | AATGATCC | 0.0166
43 | AGAACAAG | 0.0197
44 | ACGTGTGC | 0.1
45 | AAAGTCGG | -0.0861
46 | AGAATTGA | -0.159
47 | GTTAGTGA | 0.17
48 | AACGCCGA | 0.0805
49 | CTGCGACC | -0.212
50 | AGCAGTGG | -0.135

Given as tab-separated lines: part of the list above.
Row	Sequence	PBM E-score
41	AAGAGGCA	-0.126
42	AATGATCC	0.0166

Remaining list, next part:

Row | Sequence | PBM E-score
51 | AGGTCTGA | -0.0227
52 | TTATCCAA | 0.216
53 | GACGGAAC | 0.289
54 | GACAGCGC | -0.0192
55 | AGAAAAAT | 0.0843
56 | ACTCGAGG | -0.0906
57 | CCTTGCCG | -0.203
58 | AGCGGAAC | -0.0991
59 | CTAGCTTA | 0.00624
60 | GGACAATA | 0.113
61 | ATAGCGGA | -0.0437
62 | AACTTATG | -0.116
63 | CGTAATTC | 0.0957
64 | CACCCAAC | -0.151
65 | ATTGCGTC | -0.0859
66 | ACTCTACT | -0.0262
67 | ACGACGAA | 0.373
68 | AGAGAAGA | 0.0299
69 | CCCCCAGA | -0.326
70 | TTGAAAAA | 0.0719
71 | AAAGTCTT | -0.0882
72 | ACTTGCAG | -0.188
73 | CTTAACCC | -0.162
74 | ATAAGCTA | 0.034
75 | CGCCAGTC | -0.162

Row | Sequence | PBM E-score
76 | AAGCTTGA | -0.178
77 | AAGTCAGA | -0.0488
78 | CACGGTCA | 0.162
79 | ACCTACTC | -0.0139
80 | AGCCGGCC | -0.051
81 | GCCCAAAC | -0.14
82 | AGTATGTC | 0.171
83 | GAAATATC | 0.168
84 | AAAGAGAA | 0.0216
85 | ACCAACAA | 0.085
86 | CCCTTTCC | -0.14
87 | AGGTAACT | 0.157
88 | CCTCAAGA | -0.285
89 | ATGGCCAG | -0.0265
90 | AGCGAAAA | -0.101
91 | TCAACGAA | 0.169
92 | ACCAGCGG | -0.21
93 | CCGTGATC | 0.212
94 | ACCTTGCA | -0.128
95 | CTTGTTTA | -0.0487
96 | ACTTTCCC | -0.208
97 | AACGCGGT | -0.136
98 | CAATCTTA | 0.026
99 | GTATGCCA | -0.108
100 | AGAGGATC | 0.0124

Row | Sequence | PBM E-score
101 | TCCTGAGA | -0.059
102 | CCCAAAAA | 0.0725
103 | TAATCGTA | 0.194
104 | ACCTAATG | -0.11
105 | CCGCCTAC | -0.0547
106 | GTCCACAA | -0.0942
107 | GCACACAC | 0.0193
108 | CCAAGAAC | -0.145
109 | AGTTCAAT | -0.14
110 | AAGTAATA | -0.0813
111 | TTAGCTAA | 0.098
112 | ACTACAAA | 0.167
113 | ATGTCGAG | 0.0824
114 | GGTCGAGA | -0.161
115 | ACGATCCG | -0.0878
116 | ATTGCGTG | -0.126
117 | CGGTCCGC | -0.222
118 | ACCACAAG | -0.161
119 | AACTGACT | -0.157
120 | CACCTACA | 0.0954
121 | ATTAGATC | -0.00144
122 | GCAAGCTA | -0.138
123 | ATCGGATG | -0.0389
124 | GCGTACAC | 0.0451
125 | CTTGCAGC | -0.174

Row | Sequence | PBM E-score
126 | AACGTAAG | 0.123
127 | CAATACTG | -0.239
128 | ATCTTTAC | 0.0694
129 | GATTCTGA | 0.188
130 | CCCTTTTC | 0.0558
131 | CTCGGGGC | -0.128
132 | AGAATCCC | 0.0491
133 | CTCCATTC | -0.216
134 | CACAGTAC | 0.00994
135 | CTACGGTC | -0.117
136 | AAATCATT | 0.296
137 | ATTGCTCC | -0.32
138 | CACAACAC | 0.041
139 | CAGTCCGG | -0.171
140 | CATAGGCG | -0.0207
141 | TACACCTA | -0.117
142 | GTATAGCA | 0.13
143 | CCTTCCAA | -0.108
144 | GAACGCTA | -0.113
145 | GCAGGGAC | -0.131
146 | GCTAGAGC | -0.143
147 | ACGGGCAT | -0.0655
148 | GGGCAAAA | 0.0367
149 | AACCCGGA | -0.358
150 | ATGCCATC | -0.0239

Reformatted: entries from further up.

| Row | Sequence | PBM E-score |
| --- | --- | --- |
| 14 | GATTCTGC | 0.11 |
| 27 | CCACAAAA | -0.0076 |
| 70 | TTGAAAAA | 0.0719 |
| 91 | TCAACGAA | 0.169 |
| 102 | CCCAAAAA | 0.0725 |
| 105 | CCGCCTAC | -0.0547 |

(next part)

Row | Sequence | PBM E-score
151 | ACCTAGCC | -0.24
152 | AGGCTGTG | -0.081
153 | CCGGTGCC | -0.212
154 | GCATATAC | -0.121
155 | GTTCAGTA | 0.0167
156 | ACGCGGTA | 0.0473
157 | CCTGACCG | -0.0404
158 | CAACTCTG | -0.165
159 | AACAGACC | 0.12
160 | CTCGGATC | 0.00124
161 | CGTTATCC | 0.0408
162 | AAAGATTT | -0.013
163 | CATTCGCC | 0.0362
164 | ATCGCCGA | -0.0865
165 | AGTCCCCA | -0.169
166 | AAAAGGGT | 0.121
167 | TCGGATAA | -0.00732
168 | TCTTATAA | 0.0702
169 | CTTCGCGA | 0.00718
170 | CGGTCAGA | 0.00393
171 | CGCGTAAC | -0.0527
172 | CAGCGCTC | -0.0234
